Taken from: PubChem BioAssay AID1259331 (Drosophila RNAi Screening Center, 2017)
Assay: 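Genes whose knock-down changes cell survival under toxic zinc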 (primary screen). Cells: Drosophila S2R+ cells. Reagents: long dsRNA against Drosophila genes. Time to read-out: 5 days (4 days knock-down, then 1 day zinc). Treatment: zinc chloride at 15 mM final level for 1 day. Measured: 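Total cellular ATP measured by luciferase luminescence as a viability proxy, turned into Z scores from three plate copies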. Reading the numbers: mean Z score: higher = more ATP than other wells, better survival under zinc; ATP luminescence: higher = more ATP, more viable cells. Rule for the call: 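a reagent is called a hit when its Z score is above 1.5 or below -1.5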. Calls: active = hit, ATP up or down; inactive = not a hit.
This is one part, drawn at random, of about 3,100 reagents tested. In the full data, 126 (4.1%) are marked active. 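Calls are per reagent; zinc was so toxic that few knock-downs lowered ATP further, so most hits raise ATP.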 Raw values are not corrected between plates. A number with no mark means an inactive call. Reagent sequences are not shown. The record does not give: the amount of reagent.

no.	gene	PubChem SID	mean Z score	ATP luminescence, replicate 1	ATP luminescence, replicate 2
1	CG46441	SID104195353	-0.586	37482	39976
2	CG46441	SID104203325	-0.0469	58557	62821
3	Fas3 (Fasciclin 3)	SID104183118	-0.336	56979	57548
4	Fas3 (Fasciclin 3)	SID104202137	-0.0937	48989	43211
5	Fas3 (Fasciclin 3)	SID104207209	-0.411	44754	65537
6	Tsp86D (Tetraspanin 86D)	SID104195399	-0.147	34417	55299
7	Fas2 (Fasciclin 2)	SID104197100	2.76 (active)	71419	73169
8	Fas2 (Fasciclin 2)	SID104197101	-0.175	73615	69361
9	Fas2 (Fasciclin 2)	SID104198456	-0.512	40530	38539
10	CG10171	SID104189503	-0.341	27474	29959
11	CG10171	SID104204823	-0.331	48577	49023
12	Osi16 (Osiris 16)	SID104201108	0.0362	48012	49986
13	CG3652	SID104180416	0.47	58797	47480
14	Ptr (Patched-related)	SID104184644	-0.576	54321	62484
15	Ptr (Patched-related)	SID104201237	0.296	50549	52058
16	CG14420	SID104197709	0.508	67886	81213
17	CG14420	SID104203713	-0.374	53276	50909
18	Lrch (Leucine-rich-repeats and calponin homology domain protein)	SID104182788	-0.0846	54459	55625
19	Lrch (Leucine-rich-repeats and calponin homology domain protein)	SID104207689	-0.11	57099	62336
20	CG12746	SID104192010	0.0798	31845	30627
21	CG12746	SID104214491	0.0308	46851	49760
22	CG2126	SID104195210	0.31	67097	75381
23	Nup214 (Nucleoporin 214kD)	SID104184213	-0.716	26462	26959
24	Nup214 (Nucleoporin 214kD)	SID104217284	3.59 (active)	1.09e5	1.15e5
25	CG13229	SID104186141	0.396	77027	82482
26	Tsp42Eh (Tetraspanin 42Eh)	SID104185982	0.231	43665	46537
27	Tsp42Eh (Tetraspanin 42Eh)	SID104217427	-0.183	53687	53584
28	CG7272	SID104190587	0.217	77697	70166
29	CG7272	SID104217144	-0.0865	60718	56088
